No constants are given. Whether binding was seen depends on the method and setting. Binding seen in cells or lysates may run through a third protein. Some binding calls cover weakened binding; strength is not graded here.
B1: Prosaposin-RUSH (Prosaposin-SBP-mCherry) (protein, UniProt P07602)
chain: GPVLGLKECTRGSAVWCQNVKTASDCGAVKHCLQTVWNKPTVKSLPCDICKDVVTAAGDMLKDNATEEEILVYLEKTCDWLPKPNMSASCKEIVDSYLPVILDIIKGEMSRPGEVCSALNLCESLQKHLAELNHQKQLESNKIPELDMTEVVAPFMANIPLLLYPQDGPRSKPQPKDNGDVCQDCIQMVTDIQTAVRTNSTFVQALVEHVKEECDRLGPGMADICKNYISQYSEIAIQMMMHMQPKEICALVGFCDEVKEMPMQTLVPAKVASKNVIPALELVEPIKKHEVPAKSDVYCEVCEFLVKEVTKLIDNNKTEKEILDAFDKMCSKLPKSLSEECQEVVDTYGSSILSILLEEVSPELVCSMLHLCSGTRLPALTVHVTQPKDGGFCEVCKKLVGYLDRNLEKNSTKQEILAALEKGCSFLPDPYQKQCDQFVAEYEPVLIEILVEVMDPSFVCLKIGACPSAHKPLLGTEKCIWGPSYWCQNTETAAQCNAVEHCKRHVWN
B2: calnexin (protein, UniProt P27824 21-592)
chain: HDGHDDDVIDIEDDLDDVIEEVEDSKPDTTAPPSSPKVTYKAPVPTGEVYFADSFDRGTLSGWILSKAKKDDTDDEIAKYDGKWEVEEMKESKLPGDKGLVLMSRAKHHAISAKLNKPFLFDTKPLIVQYEVNFQNGIECGGAYVKLLSKTPELNLDQFHDKTPYTIMFGPDKCGEDYKLHFIFRHKNPKTGIYEEKHAKRPDADLKTYFTDKKTHLYTLILNPDNSFEILVDQSVVNSGNLLNDMTPPVNPSREIEDPEDRKPEDWDERPKIPDPEAVKPDDWDEDAPAKIPDEEATKPEGWLDDEPEYVPDPDAEKPEDWDEDMDGEWEAPQIANPRCESAPGCGVWQRPVIDNPNYKGKWKPPMIDNPSYQGIWKPRKIPNPDFFEDLEPFRMTPFSAIGLELWSMTSDIFFDNFIICADRRIVDDWANDGWGLKKAADGAAEPGVVGQMIEAAEERPWLWVVYILTVALPVFLVILFCCSGKKQTSGMEYKKTDAPQPDVKEEEEEKEEEKDKGDEEEEGEEKLEEKQKSDAEEDGGTVSQEEEDRKPKAEEDEILNRSPRNRKPRRE

Chains of the proteins cited; added tags and fusions are not shown.
UniProt O15260: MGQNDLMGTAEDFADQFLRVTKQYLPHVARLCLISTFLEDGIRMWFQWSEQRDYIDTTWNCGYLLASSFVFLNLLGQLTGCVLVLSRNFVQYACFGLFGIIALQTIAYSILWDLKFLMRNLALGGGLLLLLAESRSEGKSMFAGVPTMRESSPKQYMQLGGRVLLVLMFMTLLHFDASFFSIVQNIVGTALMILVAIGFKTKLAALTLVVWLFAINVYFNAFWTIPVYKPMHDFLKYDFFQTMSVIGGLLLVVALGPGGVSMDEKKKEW

Target: eGFP-Surf4 (human) (UniProt O15260)
Assay: co-IP

Row | Binder | binding
1 | B1 | binds
2 | B2 | no binding
